Article PMC5974278
Results are given in words; binding and its absence hold for the method and conditions named. In cells and extracts the contact can be indirect. Some results given as binding are weak or reduced against the parent protein; the word gives no strength.

By UniProt entry, the sequences of proteins in these tests, tags left out.
UniProt O75151: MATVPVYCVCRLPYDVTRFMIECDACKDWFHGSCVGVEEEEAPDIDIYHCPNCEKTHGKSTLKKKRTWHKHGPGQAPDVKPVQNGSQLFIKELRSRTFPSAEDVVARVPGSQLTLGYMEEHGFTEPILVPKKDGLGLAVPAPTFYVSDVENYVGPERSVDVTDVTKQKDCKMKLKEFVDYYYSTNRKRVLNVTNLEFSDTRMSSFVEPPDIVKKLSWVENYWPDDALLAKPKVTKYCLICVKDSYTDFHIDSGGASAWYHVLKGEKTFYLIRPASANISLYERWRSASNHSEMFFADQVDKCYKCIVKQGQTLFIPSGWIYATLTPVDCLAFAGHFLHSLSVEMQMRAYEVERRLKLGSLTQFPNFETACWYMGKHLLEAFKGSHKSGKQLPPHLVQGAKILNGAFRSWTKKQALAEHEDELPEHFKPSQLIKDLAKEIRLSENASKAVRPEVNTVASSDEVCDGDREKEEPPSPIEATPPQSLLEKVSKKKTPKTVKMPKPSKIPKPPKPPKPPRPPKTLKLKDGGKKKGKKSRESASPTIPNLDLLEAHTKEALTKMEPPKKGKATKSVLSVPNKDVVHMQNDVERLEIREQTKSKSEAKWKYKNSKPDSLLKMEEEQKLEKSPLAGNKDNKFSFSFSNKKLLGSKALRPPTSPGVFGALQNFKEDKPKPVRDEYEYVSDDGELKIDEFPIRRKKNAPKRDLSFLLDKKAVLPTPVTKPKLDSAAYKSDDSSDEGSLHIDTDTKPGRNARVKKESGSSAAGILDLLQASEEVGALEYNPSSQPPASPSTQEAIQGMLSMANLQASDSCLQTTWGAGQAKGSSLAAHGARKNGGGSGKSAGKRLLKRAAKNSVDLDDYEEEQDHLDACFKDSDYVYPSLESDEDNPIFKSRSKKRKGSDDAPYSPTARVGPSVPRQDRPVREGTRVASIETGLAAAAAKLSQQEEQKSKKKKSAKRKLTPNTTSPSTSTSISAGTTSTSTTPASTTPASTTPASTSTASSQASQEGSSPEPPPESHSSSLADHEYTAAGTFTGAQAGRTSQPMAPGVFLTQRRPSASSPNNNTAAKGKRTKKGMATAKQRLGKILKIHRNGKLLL
UniProt Q9WTU0: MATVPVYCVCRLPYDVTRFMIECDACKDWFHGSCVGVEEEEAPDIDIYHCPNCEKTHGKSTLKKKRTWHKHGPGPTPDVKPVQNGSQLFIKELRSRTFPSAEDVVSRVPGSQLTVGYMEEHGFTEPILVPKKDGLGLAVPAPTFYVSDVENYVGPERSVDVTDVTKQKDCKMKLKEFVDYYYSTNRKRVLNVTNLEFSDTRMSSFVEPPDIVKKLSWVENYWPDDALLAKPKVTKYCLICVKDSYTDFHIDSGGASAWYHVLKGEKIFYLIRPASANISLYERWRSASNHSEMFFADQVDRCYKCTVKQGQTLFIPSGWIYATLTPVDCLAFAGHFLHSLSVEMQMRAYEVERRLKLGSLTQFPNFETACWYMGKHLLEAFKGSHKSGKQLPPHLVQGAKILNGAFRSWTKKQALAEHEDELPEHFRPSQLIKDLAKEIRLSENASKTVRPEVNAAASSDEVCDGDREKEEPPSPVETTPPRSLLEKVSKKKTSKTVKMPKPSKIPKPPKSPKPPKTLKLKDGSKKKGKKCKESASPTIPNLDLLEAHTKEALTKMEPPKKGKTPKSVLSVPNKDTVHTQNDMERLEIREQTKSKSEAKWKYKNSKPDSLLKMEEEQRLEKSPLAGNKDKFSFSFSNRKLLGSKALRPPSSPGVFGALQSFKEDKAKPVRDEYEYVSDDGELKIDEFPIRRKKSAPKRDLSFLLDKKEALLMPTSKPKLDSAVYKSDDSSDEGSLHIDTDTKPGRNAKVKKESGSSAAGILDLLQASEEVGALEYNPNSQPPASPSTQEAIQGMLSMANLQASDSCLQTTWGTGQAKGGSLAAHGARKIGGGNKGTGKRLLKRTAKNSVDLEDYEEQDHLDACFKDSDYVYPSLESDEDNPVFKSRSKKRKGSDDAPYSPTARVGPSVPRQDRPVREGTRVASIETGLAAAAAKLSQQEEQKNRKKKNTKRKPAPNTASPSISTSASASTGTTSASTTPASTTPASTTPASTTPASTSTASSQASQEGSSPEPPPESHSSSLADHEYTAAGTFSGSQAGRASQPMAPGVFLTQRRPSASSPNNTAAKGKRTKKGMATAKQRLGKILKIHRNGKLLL

Legend:
[1] = biological target: T1, ChREBP (Carbohydrate Responsive Element Binding Protein), ectopically expressed in 293T cells (UniProt Q99MZ3); experiment: co-IP; reciprocal co-immunoprecipitation of ectopically expressed proteins in 293T cells
T1 sequence: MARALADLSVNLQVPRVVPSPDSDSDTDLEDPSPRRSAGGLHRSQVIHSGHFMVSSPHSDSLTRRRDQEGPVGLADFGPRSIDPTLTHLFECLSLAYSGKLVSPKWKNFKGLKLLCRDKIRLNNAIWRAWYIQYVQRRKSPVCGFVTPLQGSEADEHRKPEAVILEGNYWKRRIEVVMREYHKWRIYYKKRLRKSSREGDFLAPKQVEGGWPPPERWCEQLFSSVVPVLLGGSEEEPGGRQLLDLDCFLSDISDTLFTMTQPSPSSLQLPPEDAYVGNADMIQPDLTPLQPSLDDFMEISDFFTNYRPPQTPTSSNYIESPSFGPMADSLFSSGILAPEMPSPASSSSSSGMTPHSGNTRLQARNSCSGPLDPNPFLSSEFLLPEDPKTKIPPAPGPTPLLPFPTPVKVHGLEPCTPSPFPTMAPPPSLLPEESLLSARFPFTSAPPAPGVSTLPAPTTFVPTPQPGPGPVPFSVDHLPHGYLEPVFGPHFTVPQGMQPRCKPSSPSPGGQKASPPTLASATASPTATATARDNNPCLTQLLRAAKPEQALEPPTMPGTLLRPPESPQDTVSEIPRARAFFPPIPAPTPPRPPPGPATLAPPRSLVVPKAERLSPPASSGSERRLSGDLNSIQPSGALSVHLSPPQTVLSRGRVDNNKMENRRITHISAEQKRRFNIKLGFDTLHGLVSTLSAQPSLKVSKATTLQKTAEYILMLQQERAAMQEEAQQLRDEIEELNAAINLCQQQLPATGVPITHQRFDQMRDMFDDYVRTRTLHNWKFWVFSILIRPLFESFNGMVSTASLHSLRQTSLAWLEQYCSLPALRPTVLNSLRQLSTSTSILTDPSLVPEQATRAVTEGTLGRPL

[2] = biological target: T2, endogenous ChREBP (mouse liver) (mouse (endogenous in liver of C57Bl/6J mice)) (UniProt Q99MZ3); experiment: co-IP; reciprocal co-immunoprecipitation of endogenous proteins in the liver of fed C57Bl/6J mice
T2 sequence: T1 sequence

Row | binding [1] | binding [2] | Substance
1 | binds |  | FLAG-tagged wild-type Phf2 (Plant Homeodomain Finger 2) (from UniProt O75151 1-1096) (enzyme)
2 |  | binds | endogenous Phf2 (mouse liver / hepatocytes) (from UniProt Q9WTU0 1-1096) (enzyme)
